The text below walks through data of paper PMC5688144, “Assay interference and off-target liabilities of reported histone acetyltransferase inhibitors” (Nature Communications, 2017).

Data set [1] in a line: HRP-PR redox activity counter-screen (H2O2 production). Conditions: 250 μM compound; for HRP-PR redox counter-screen, - DTT: 0 mM DTT; for HRP-PR redox counter-screen, + DTT: 1 mM DTT.
The next data set in a line: UPLC-MS CoA adduct assay. Format: physicochemical. Conditions: compound-CoA adduct detection; 5 eq CoA, pH 7.0.
The nature of another data set: UPLC-MS GSH adduct assay. To be noted: compound-GSH adduct detection; 5 eq GSH, pH 7.0, 37 °C. Format: physicochemical.

As to `Cc1cc2c(C(C)C)c(O)c(O)c(C=O)c2c(O)c1-c1c(C)cc2c(C(C)C)c(O)c(O)c(C=O)c2c1O` [Compound 16, Gossypol], in data set [1], the “H2O2 production in situ (horseradish peroxidase-phenol red assay)” value is recorded as “appreciable levels of H2O2”; the “HRP-PR redox counter-screen, - DTT” value was “Positive (Redox-active compounds were defined as compounds with a mean absorbance >0.2)”; the “HRP-PR redox counter-screen, + DTT” value is listed as “Positive (Redox-active compounds were defined as compounds with a mean absorbance >0.2)”.
Take Garcinol [Compound 13]: in data set [1], the “HRP-PR redox counter-screen, - DTT” value was “Negative” and the “HRP-PR redox counter-screen, + DTT” value was “Negative”. Besides, the “UPLC-MS CoA counter-screen” value in the data set “UPLC-MS CoA adduct assay” was “Negative”. For the same compound, the “UPLC-MS GSH counter-screen” value in the data set “UPLC-MS GSH adduct assay” is given as “Negative”.
In the case of `CC(=O)N[C@H](CCCCNC(=O)CSCCNC(=O)CCNC(=O)C(O)C(C)(C)COP(=O)(O)OP(=O)(O)OC[C@H]1O[C@@H](n2cnc3c(N)ncnc32)[C@H](O)[C@@H]1OP(=O)(O)O)C(N)=O` (some centres unmarked) [Compound 23, Lys-CoA], in data set [1], the “HRP-PR redox counter-screen, - DTT” value was “Negative” and the “HRP-PR redox counter-screen, + DTT” value is on record as “Negative”.
`O=C(O[C@@H]1Cc2c(O)cc(O)cc2O[C@@H]1c1cc(O)c(O)c(O)c1)c1cc(O)c(O)c(O)c1` [Compound 10, (-)-Epigallocatechin gallate]: in “UPLC-MS CoA adduct assay”, the “UPLC-MS CoA counter-screen” value is given as “Negative”. For the same compound, the “UPLC-MS GSH counter-screen” value in “UPLC-MS GSH adduct assay” is “Positive”.
Turning to `COc1ccc(S(=O)(=O)ON=C2C=C(C)C(=O)C(C)=C2)cc1` [Compound 5, L002], in data set [1], the “HRP-PR redox counter-screen, - DTT” value was “Negative” and the “HRP-PR redox counter-screen, + DTT” value is “Negative”. The “UPLC-MS CoA counter-screen” value in the data set “UPLC-MS CoA adduct assay” is “Positive”. In addition, the “UPLC-MS GSH counter-screen” value in the data set “UPLC-MS GSH adduct assay” is given as “Positive”.
Take `COc1cc(/C=C/c2cc(/C=C/c3ccc(O)c(OC)c3)n(-c3ccc(C(=O)[O-])cc3)n2)ccc1O.[Na+]` [Compound 17, CTK7A]: in data set [1], the “HRP-PR redox counter-screen, - DTT” value was “Negative” and the “HRP-PR redox counter-screen, + DTT” value is listed as “Negative”. In addition, in the data set “UPLC-MS CoA adduct assay”, the “UPLC-MS CoA counter-screen” value is given as “Negative”. For the same compound, in the data set “UPLC-MS GSH adduct assay”, the “UPLC-MS GSH counter-screen” value is “Negative”.
As to `CCCCCCCCCCCC1=C(O)C(=O)C=C(O)C1=O` [Compound 9, Embelin], in data set [1], the “HRP-PR redox counter-screen, - DTT” value was “Negative” and the “HRP-PR redox counter-screen, + DTT” value is on record as “Negative”. For the same compound, the “UPLC-MS CoA counter-screen” value in “UPLC-MS CoA adduct assay” is recorded as “Positive”. Also, the “UPLC-MS GSH counter-screen” value in the data set “UPLC-MS GSH adduct assay” was “Positive”.
In the case of `CCCC1(c2ccccc2)NC(=O)N(CC(=O)N(C)Cc2c(F)cccc2Cl)C1=O` (centres unmarked) [Compound 21, N-[(2-chloro-6-fluorophenyl)methyl]-2-(2,5-dioxo-4-phenyl-4-propylimidazolidin-1-yl)-N-methylacetamide], in data set [1], the “HRP-PR redox counter-screen, - DTT” value was “Negative” and the “HRP-PR redox counter-screen, + DTT” value is recorded as “Negative”. Also, the “UPLC-MS CoA counter-screen” value in the data set “UPLC-MS CoA adduct assay” is given as “Negative”. The “UPLC-MS GSH counter-screen” value in the data set “UPLC-MS GSH adduct assay” is given as “Negative”.
Take `O=C1/C(=C/c2ccc(O)c(Br)c2)CCC/C1=C\c1ccc(O)c(Br)c1` [Compound 12, HAT inhibitor II]: in data set [1], the “HRP-PR redox counter-screen, - DTT” value is reported as “Negative” and the “HRP-PR redox counter-screen, + DTT” value is on record as “Negative”. For the same compound, the “UPLC-MS CoA counter-screen” value in “UPLC-MS CoA adduct assay” is “Negative”. In addition, the “UPLC-MS GSH counter-screen” value in “UPLC-MS GSH adduct assay” is given as “Negative”.
Turning to `CCCCCCCc1ccc(CCc2cccc(O)c2C(=O)O)cc1` [Compound 15, MG 149], in the data set “UPLC-MS CoA adduct assay”, the “UPLC-MS CoA counter-screen” value is recorded as “Negative”. In the data set “UPLC-MS GSH adduct assay”, the “UPLC-MS GSH counter-screen” value is on record as “Negative”.
With `COc1cc(/C=C/C(=O)CC(=O)/C=C/c2ccc(O)c(OC)c2)ccc1O` [Compound 11, Curcumin], the “UPLC-MS CoA counter-screen” value in “UPLC-MS CoA adduct assay” is reported as “Positive”. In “UPLC-MS GSH adduct assay”, the “UPLC-MS GSH counter-screen” value was “Positive”.
In the case of `Cl.Cl.O=C(O)Cn1nnc(-c2ccc(CN(CCCCOc3ccc(CN4CCCC4)cc3)CCc3ccccc3)cc2)n1` [Compound 20, TH1834], in data set [1], the “HRP-PR redox counter-screen, - DTT” value is recorded as “Negative” and the “HRP-PR redox counter-screen, + DTT” value is listed as “Negative”. For the same compound, in the data set “UPLC-MS CoA adduct assay”, the “UPLC-MS CoA counter-screen” value is recorded as “Negative”. For the same compound, the “UPLC-MS GSH counter-screen” value in “UPLC-MS GSH adduct assay” is recorded as “Negative”.
On to Plumbagin [Compound 8], for which, in data set [1], the “H2O2 production in situ (horseradish peroxidase-phenol red assay)” value is reported as “appreciable levels of H2O2”; the “HRP-PR redox counter-screen, - DTT” value is on record as “Negative”; the “HRP-PR redox counter-screen, + DTT” value is reported as “Positive (Redox-active compounds were defined as compounds with a mean absorbance >0.2)”. In addition, the “UPLC-MS CoA counter-screen” value in the data set “UPLC-MS CoA adduct assay” is “Positive”. For the same compound, in “UPLC-MS GSH adduct assay”, the “UPLC-MS GSH counter-screen” value is reported as “Positive”.
Turning to `Cc1cc(O)cc(C)c1C=C1C(=O)N(Cc2ccccc2)C(=O)N(Cc2ccccc2)C1=O` [Compound 4, EML425], the “UPLC-MS CoA counter-screen” value in “UPLC-MS CoA adduct assay” is “Negative”. The “UPLC-MS GSH counter-screen” value in “UPLC-MS GSH adduct assay” is “negative”.
On to `C=C1C(=O)O[C@H](CCC)[C@H]1C(=O)O` [Compound 6, MB-3], for which, in data set [1], the “HRP-PR redox counter-screen, - DTT” value is given as “Negative” and the “HRP-PR redox counter-screen, + DTT” value is on record as “Negative”. Besides, in the data set “UPLC-MS CoA adduct assay”, the “UPLC-MS CoA counter-screen” value is given as “Positive”. The “UPLC-MS GSH counter-screen” value in “UPLC-MS GSH adduct assay” is “Positive”.
Regarding `Clc1ccc(-c2csc(NN=C3CCCC3)n2)cc1` [Compound 7, CPTH2], in data set [1], the “HRP-PR redox counter-screen, - DTT” value was “Negative” and the “HRP-PR redox counter-screen, + DTT” value is on record as “Negative”. The “UPLC-MS CoA counter-screen” value in the data set “UPLC-MS CoA adduct assay” is “Indeterminate”. For the same compound, in “UPLC-MS GSH adduct assay”, the “UPLC-MS GSH counter-screen” value is on record as “Indeterminate”.
With `CCCCCCCCCCCCCCCc1cccc(O)c1C(=O)O` [Compound 14, Anacardic acid], in data set [1], the “HRP-PR redox counter-screen, - DTT” value is “Negative” and the “HRP-PR redox counter-screen, + DTT” value is recorded as “Negative”. Further, the “UPLC-MS CoA counter-screen” value in “UPLC-MS CoA adduct assay” is given as “Negative”. In the data set “UPLC-MS GSH adduct assay”, the “UPLC-MS GSH counter-screen” value is given as “Negative”.
Regarding `CCCCCCCCCCCCCCC=C(C(=O)OCC)C(=O)OCC` [Compound 19, LoCAM], in data set [1], the “HRP-PR redox counter-screen, - DTT” value is listed as “Negative” and the “HRP-PR redox counter-screen, + DTT” value is listed as “Negative”. Further, the “UPLC-MS CoA counter-screen” value in the data set “UPLC-MS CoA adduct assay” is “Negative”. Besides, the “UPLC-MS GSH counter-screen” value in “UPLC-MS GSH adduct assay” was “Negative”.
`COc1ccc(/C(Cl)=C(/C=O)c2ccc(OC)cc2)cc1` [Compound 18, Windorphen]: in data set [1], the “HRP-PR redox counter-screen, - DTT” value is “Negative” and the “HRP-PR redox counter-screen, + DTT” value is recorded as “Negative”. The “UPLC-MS CoA counter-screen” value in the data set “UPLC-MS CoA adduct assay” is recorded as “Negative”. Besides, the “UPLC-MS GSH counter-screen” value in “UPLC-MS GSH adduct assay” was “positive”.
As for `CC1=NN(c2ccc(C(=O)O)cc2)C(=O)/C1=C/c1ccc(-c2cc(C)c(C)cc2[N+](=O)[O-])o1` [Compound 1, C646], in data set [1], the “HRP-PR redox counter-screen, - DTT” value is “Negative” and the “HRP-PR redox counter-screen, + DTT” value is on record as “Negative”. Further, the “UPLC-MS CoA counter-screen” value in “UPLC-MS CoA adduct assay” was “Positive”. The “UPLC-MS GSH counter-screen” value in “UPLC-MS GSH adduct assay” is “Positive”.
Regarding `O=c1c2cccnc2sn1Cc1ccc(C(F)(F)F)cc1` [Compound 3, PU141], in data set [1], the “HRP-PR redox counter-screen, - DTT” value is given as “Negative” and the “HRP-PR redox counter-screen, + DTT” value was “Negative”. Moreover, the “UPLC-MS CoA counter-screen” value in “UPLC-MS CoA adduct assay” was “Positive”. The “UPLC-MS GSH counter-screen” value in the data set “UPLC-MS GSH adduct assay” is listed as “Positive”.
With `N#Cc1c2ccc(N)cc2nc2cc(N)ccc12` [Compound 22, CTx-1], the “HRP-PR redox counter-screen, + DTT” value in data set [1] is on record as “Negative”. Also, the “UPLC-MS CoA counter-screen” value in the data set “UPLC-MS CoA adduct assay” is “Negative”. Besides, in “UPLC-MS GSH adduct assay”, the “UPLC-MS GSH counter-screen” value is given as “Negative”.
